Data as given in the supplement of paper PMC10849652.
This is one part of the list.

Chains of the proteins cited; added tags and fusions are not shown. Lines headed by an entry give the natural chain unless they say otherwise; changes in a name come on top.
UniProt O75155: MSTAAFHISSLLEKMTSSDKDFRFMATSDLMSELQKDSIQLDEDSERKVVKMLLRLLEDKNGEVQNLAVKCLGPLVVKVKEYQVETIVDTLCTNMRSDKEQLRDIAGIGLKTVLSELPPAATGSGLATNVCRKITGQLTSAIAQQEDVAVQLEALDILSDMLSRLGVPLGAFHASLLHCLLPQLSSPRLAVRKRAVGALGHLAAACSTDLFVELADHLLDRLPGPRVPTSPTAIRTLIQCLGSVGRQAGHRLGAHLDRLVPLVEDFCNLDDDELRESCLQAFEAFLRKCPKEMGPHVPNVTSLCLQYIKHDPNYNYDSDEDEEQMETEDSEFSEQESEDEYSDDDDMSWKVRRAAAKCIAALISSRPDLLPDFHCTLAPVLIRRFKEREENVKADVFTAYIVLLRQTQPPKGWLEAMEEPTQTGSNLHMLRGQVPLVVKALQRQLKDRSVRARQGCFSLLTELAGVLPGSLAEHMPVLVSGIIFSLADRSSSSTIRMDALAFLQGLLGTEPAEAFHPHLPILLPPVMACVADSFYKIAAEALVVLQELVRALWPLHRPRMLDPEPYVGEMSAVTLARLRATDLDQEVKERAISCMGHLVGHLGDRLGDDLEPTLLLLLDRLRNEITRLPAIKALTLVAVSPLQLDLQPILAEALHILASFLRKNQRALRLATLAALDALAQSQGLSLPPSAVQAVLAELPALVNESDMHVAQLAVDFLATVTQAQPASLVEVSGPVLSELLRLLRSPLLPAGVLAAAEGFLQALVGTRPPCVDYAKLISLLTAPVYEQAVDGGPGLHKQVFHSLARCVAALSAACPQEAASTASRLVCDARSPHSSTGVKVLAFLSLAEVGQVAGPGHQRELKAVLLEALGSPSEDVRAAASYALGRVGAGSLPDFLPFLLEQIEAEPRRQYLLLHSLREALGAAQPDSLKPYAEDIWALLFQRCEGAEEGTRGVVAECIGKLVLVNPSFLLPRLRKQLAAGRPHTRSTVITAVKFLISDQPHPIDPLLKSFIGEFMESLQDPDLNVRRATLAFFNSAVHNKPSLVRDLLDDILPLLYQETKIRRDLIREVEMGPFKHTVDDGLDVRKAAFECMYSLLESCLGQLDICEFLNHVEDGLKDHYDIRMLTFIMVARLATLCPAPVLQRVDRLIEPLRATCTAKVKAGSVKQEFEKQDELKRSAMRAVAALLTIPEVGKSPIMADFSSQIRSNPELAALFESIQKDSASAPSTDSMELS
UniProt Q8WUR7: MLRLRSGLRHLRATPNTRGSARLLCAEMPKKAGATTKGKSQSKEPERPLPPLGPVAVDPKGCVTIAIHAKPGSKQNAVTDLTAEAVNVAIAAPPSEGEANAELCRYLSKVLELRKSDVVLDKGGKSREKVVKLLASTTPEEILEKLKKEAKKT
UniProt Q9NSG2: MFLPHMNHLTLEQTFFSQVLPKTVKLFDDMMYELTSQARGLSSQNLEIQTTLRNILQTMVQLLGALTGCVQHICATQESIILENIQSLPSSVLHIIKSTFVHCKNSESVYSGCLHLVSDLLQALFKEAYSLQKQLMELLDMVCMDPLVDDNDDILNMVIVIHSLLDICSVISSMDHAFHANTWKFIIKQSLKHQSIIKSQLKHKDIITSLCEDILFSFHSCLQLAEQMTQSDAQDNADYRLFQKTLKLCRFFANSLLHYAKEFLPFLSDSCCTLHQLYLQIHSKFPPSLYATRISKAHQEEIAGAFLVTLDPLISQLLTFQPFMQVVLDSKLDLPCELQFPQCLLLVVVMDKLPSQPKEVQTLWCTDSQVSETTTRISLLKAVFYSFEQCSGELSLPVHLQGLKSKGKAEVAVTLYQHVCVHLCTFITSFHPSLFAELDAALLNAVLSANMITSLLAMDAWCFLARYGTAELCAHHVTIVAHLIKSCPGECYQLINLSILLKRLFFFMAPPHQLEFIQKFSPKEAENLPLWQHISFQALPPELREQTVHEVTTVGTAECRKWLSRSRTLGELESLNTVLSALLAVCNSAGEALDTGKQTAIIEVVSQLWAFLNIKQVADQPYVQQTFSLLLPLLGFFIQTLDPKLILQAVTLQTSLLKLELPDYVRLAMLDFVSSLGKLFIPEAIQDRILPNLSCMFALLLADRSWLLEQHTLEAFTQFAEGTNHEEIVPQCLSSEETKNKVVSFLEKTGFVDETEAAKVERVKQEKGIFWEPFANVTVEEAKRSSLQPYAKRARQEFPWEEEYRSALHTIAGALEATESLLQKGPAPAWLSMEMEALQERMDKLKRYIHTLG
UniProt Q9H0W9: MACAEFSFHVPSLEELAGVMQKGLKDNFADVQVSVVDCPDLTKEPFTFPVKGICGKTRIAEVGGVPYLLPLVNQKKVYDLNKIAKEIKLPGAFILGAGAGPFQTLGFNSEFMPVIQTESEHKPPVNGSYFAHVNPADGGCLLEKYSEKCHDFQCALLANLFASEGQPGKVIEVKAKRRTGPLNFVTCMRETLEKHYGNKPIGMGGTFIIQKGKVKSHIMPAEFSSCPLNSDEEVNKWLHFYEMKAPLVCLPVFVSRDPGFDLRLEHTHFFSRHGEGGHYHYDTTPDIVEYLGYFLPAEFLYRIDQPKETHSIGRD
UniProt Q13555: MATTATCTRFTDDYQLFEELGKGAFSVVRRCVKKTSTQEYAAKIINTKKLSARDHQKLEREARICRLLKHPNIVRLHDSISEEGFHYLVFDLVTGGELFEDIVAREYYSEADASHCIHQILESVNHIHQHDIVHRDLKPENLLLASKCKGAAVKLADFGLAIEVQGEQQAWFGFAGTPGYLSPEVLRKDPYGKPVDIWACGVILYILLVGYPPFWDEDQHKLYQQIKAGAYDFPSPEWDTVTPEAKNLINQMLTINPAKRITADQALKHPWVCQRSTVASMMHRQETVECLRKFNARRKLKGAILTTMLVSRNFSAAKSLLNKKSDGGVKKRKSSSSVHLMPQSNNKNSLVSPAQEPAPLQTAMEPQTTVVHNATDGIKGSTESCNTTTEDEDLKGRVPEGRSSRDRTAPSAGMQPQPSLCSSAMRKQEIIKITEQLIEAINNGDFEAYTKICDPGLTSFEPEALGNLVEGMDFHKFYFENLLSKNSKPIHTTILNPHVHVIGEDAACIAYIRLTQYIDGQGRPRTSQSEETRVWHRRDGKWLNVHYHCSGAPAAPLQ
UniProt Q8N8R5: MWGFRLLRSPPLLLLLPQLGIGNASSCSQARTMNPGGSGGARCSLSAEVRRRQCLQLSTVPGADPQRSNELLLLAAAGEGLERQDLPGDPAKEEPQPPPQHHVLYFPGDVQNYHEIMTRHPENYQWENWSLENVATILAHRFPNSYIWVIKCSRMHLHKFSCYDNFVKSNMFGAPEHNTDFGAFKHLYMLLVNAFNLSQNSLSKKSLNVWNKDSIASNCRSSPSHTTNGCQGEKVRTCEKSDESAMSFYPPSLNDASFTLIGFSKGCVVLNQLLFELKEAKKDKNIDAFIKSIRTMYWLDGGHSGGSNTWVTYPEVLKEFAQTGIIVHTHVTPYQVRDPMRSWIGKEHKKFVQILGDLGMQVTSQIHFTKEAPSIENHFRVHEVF
UniProt P17655: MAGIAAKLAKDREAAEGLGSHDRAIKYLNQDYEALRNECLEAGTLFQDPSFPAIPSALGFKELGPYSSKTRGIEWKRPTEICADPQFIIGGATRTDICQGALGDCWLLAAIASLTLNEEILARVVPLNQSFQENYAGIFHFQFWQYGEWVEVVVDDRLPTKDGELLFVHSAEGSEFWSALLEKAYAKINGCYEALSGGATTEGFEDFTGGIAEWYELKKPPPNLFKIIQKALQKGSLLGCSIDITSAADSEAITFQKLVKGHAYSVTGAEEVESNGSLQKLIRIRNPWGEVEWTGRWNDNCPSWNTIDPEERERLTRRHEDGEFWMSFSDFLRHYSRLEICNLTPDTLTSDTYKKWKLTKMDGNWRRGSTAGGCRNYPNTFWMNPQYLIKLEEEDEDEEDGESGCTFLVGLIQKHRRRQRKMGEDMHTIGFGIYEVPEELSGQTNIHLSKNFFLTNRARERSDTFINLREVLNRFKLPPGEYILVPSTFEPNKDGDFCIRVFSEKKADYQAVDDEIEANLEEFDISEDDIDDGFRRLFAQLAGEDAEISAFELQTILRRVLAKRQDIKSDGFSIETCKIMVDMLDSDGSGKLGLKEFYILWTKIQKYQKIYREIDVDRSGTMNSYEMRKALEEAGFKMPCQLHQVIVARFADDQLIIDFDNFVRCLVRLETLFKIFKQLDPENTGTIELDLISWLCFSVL
UniProt Q13895: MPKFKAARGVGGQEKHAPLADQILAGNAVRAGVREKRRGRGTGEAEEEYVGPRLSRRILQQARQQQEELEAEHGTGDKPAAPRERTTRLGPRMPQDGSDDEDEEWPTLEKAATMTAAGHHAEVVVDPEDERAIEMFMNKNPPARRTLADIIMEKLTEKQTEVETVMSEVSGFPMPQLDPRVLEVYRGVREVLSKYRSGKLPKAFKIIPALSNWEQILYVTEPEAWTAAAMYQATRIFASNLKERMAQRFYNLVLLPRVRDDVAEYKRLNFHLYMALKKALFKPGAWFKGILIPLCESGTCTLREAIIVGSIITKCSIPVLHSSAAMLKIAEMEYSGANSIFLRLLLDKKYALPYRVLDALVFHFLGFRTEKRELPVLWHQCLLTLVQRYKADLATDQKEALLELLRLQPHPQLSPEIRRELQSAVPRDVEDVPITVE
UniProt O95873: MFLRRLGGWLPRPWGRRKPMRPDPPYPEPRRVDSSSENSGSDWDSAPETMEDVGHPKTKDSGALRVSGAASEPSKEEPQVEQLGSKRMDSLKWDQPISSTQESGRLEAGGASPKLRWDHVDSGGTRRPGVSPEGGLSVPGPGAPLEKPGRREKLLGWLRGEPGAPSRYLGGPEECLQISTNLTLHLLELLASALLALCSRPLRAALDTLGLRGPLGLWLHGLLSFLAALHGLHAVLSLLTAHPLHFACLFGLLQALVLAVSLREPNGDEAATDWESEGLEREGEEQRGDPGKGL
UniProt Q07021: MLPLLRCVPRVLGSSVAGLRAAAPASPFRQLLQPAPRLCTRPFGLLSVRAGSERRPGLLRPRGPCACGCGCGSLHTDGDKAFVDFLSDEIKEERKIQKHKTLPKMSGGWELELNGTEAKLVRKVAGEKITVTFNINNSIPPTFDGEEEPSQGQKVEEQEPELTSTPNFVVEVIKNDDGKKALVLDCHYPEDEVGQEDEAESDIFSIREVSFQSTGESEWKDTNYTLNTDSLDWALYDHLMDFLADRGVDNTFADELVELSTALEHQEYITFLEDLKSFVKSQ
UniProt P27824: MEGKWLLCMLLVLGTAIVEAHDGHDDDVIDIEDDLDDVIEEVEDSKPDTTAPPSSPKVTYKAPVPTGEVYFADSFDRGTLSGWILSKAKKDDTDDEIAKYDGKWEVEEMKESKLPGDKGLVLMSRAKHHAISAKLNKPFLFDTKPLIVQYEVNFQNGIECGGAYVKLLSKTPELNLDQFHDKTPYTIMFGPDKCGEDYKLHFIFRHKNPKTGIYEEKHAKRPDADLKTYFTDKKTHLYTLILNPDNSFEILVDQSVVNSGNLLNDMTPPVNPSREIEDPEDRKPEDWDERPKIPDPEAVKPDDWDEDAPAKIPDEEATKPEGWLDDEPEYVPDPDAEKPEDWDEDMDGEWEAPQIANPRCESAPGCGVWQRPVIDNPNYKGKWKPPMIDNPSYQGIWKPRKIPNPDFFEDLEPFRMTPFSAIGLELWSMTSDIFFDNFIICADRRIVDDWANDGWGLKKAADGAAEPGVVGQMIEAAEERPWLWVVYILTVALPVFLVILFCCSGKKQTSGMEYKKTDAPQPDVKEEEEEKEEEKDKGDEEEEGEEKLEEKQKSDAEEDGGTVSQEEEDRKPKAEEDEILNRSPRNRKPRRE
UniProt Q96K31: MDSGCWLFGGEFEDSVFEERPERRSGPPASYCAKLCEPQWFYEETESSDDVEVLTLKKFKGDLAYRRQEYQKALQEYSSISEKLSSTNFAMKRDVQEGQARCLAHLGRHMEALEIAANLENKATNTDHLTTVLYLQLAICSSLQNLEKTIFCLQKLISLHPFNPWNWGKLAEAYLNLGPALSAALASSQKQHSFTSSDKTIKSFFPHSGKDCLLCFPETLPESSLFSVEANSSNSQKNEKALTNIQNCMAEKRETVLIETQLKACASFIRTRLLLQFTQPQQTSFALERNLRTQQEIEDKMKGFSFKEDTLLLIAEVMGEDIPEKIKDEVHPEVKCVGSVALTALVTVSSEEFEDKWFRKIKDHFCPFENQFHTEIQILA
UniProt Q9Y376: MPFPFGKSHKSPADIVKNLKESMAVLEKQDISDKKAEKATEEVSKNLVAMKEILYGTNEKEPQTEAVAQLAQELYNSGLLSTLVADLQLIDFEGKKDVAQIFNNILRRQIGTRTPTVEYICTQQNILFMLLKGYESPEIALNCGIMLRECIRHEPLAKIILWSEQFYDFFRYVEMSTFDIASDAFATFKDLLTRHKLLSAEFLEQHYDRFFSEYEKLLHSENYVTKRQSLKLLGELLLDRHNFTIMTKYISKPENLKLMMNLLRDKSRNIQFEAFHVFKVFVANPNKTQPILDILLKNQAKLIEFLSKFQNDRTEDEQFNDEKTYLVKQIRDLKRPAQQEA

Legend:
Assay in all cases: log2 fold change, soluble protein after heating vs DMSO (PISA); higher = thermal stabilisation; K562 lysate, 10 uM; active = over 0.2 and 3.5 SD of the protein, either way, in both replicates (recomputed)
vemurafenib = compound: CCCS(=O)(=O)Nc1ccc(F)c(C(=O)c2c[nH]c3ncc(-c4ccc(Cl)cc4)cc23)c1F [vemurafenib]
Method in brief: (§1)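 Pellets of K562 cells were dounce-homogenised in PBS pH 7.4 with 1 mM MgCl2, and the crude extract was held at 1 mg/mL protein for a 30 min treatment with 10 μM compound. Aliquots were heated for 3 min over 48°C-58°C and pooled before NP-40 was added to 0.5% at 4°C. The supernatant from 21,000xg for 90 min was quantified by TMTpro 16plex LC-MS/MS with channel sums equalised. Values are reported from duplicates as log-two fold change in thermal stability relative to solvent controls.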

[1] = compound: CCCS(=O)(=O)Nc1ccc(F)c(C(=O)c2c[nH]c3ncc(Cl)cc23)c1F
Method in brief: as §1

barasertib = compound: CCN(CCCOc1ccc2c(Nc3cc(CC(=O)Nc4cccc(F)c4)[nH]n3)ncnc2c1)CCOP(=O)(O)O [barasertib]
Method in brief: as §1

[2] = compound: CC[C@@H]1C(=O)N(C)c2cnc(Nc3ccc(C(=O)NC4CCN(C)CC4)cc3OC)nc2N1C1CCCC1
Method in brief: as §1

volasertib = compound: CC[C@@H]1C(=O)N(C)c2cnc(Nc3ccc(C(=O)N[C@H]4CC[C@H](N5CCN(CC6CC6)CC5)CC4)cc3OC)nc2N1C(C)C [volasertib]
Method in brief: as §1

[3] = compound: CCn1c(C(=O)N(C2CC2)C2CC2)cc2c3c(ncn3C)c(Nc3cc(C)n(C)n3)nc21
Method in brief: as §1

[4] = compound: CCn1cc(-c2ccnc3[nH]c(-c4cccc(CN(C)C)c4)cc23)c(-c2ccc(NC(=O)N(C)C)cc2)n1
Method in brief: as §1

[5] = compound: CN1CCC(CNc2ccc3ncc(-c4cccc(OC(F)(F)F)c4)n3n2)CC1
Method in brief: as §1

saracatinib = compound: CN1CCN(CCOc2cc(OC3CCOCC3)c3c(Nc4c(Cl)ccc5c4OCO5)ncnc3c2)CC1 [saracatinib]
Method in brief: as §1

sotrastaurin = compound: CN1CCN(c2nc(C3=C(c4c[nH]c5ccccc45)C(=O)NC3=O)c3ccccc3n2)CC1 [sotrastaurin]
Method in brief: as §1

alvocidib = compound: CN1CC[C@H](c2c(O)cc(O)c3c(=O)cc(-c4ccccc4Cl)oc23)[C@H](O)C1 [alvocidib]
Method in brief: as §1

Tubastatin A = compound: CN1CCc2c(c3ccccc3n2Cc2ccc(C(=O)NO)cc2)C1 [Tubastatin A]
Method in brief: as §1

[6] = compound: CNC(=O)C1=CC=CC=C1NC2=NC(=NC=C2Cl)NC3=C(C=C(C=C3)N4CCOCC4)OC
Method in brief: as §1

defactinib = compound: CNC(=O)c1ccc(Nc2ncc(C(F)(F)F)c(NCc3nccnc3N(C)S(C)(=O)=O)n2)cc1 [defactinib]
Method in brief: as §1

[7] = compound: CNc1nc(-c2ccc3c(N)n[nH]c3c2)cc(N2C[C@@H](C(=O)NC3CCCCC3)CC[C@H]2C)n1
Method in brief: as §1

encorafenib = compound: COC(=O)N[C@@H](C)CNc1nccc(-c2cn(C(C)C)nc2-c2cc(Cl)cc(NS(C)(=O)=O)c2F)n1 [encorafenib]
Method in brief: as §1

[8] = compound: COC(=O)[C@H](CCSC)NC(=O)C1=C(C=C(C=C1)NC[C@H](CS)N)C2=CC=CC=C2
Method in brief: as §1

alisertib = compound: COc1cc(Nc2ncc3c(n2)-c2ccc(Cl)cc2C(c2c(F)cccc2OC)=NC3)ccc1C(=O)O [alisertib]
Method in brief: as §1

[9] = compound: COc1cc2nc(-c3cc(F)ccc3O)nc(N[C@@H]3CNC[C@H]3C(C)(C)O)c2cc1OC
Method in brief: as §1

gefitinib = compound: COc1cc2ncnc(Nc3ccc(F)c(Cl)c3)c2cc1OCCCN1CCOCC1 [gefitinib]
Method in brief: as §1

Measured: log2 fold change

CAND2 (UniProt O75155)
inactive: vemurafenib -0.032 | [1] 0.007 | barasertib -0.012 | [2] 0.033 | volasertib 0.011 | [3] -0.007 | [4] 0.006 | [5] -0.027 | saracatinib 0.002 | sotrastaurin 0.011 | alvocidib -0.015 | Tubastatin A 0.102 | [6] 0.003 | defactinib -0.011 | [7] 0.007 | encorafenib 0.016 | [8] -0.085 | alisertib -0.001 | [9] 0.01 | gefitinib 0.02

CALB1 (UniProt P05937)
inactive: vemurafenib -0.01 | [1] -0.022 | barasertib 0.251 | [2] 0.012 | volasertib 0.035 | [3] 0.015 | [4] 0.121 | [5] -0.103 | saracatinib -0.031 | sotrastaurin -0.003 | alvocidib 0.051 | Tubastatin A 0.036 | [6] -0.009 | defactinib -0.017 | [7] -0.047 | encorafenib -0.015 | [8] -0.071 | alisertib -0.018 | [9] 0.008 | gefitinib 0.024

C15orf40 (UniProt Q8WUR7)
inactive: vemurafenib 0.005 | [1] -0.043 | barasertib 0.001 | [2] 0.078 | volasertib -0.054 | [3] -0.011 | [4] -0.038 | [5] 0.047 | saracatinib 0.003 | sotrastaurin -0.039 | alvocidib -0.032 | Tubastatin A 0.093 | [6] 0.067 | defactinib -0.035 | [7] 0.02 | encorafenib -0.005 | [8] -0.058 | alisertib -0.091 | [9] 0.011 | gefitinib 0.104

C1orf112 (UniProt Q9NSG2)
inactive: vemurafenib 0 | [1] 0.006 | barasertib -0.04 | [2] -0.065 | volasertib 0.034 | [3] 0.037 | [4] 0.171 | [5] -0.059 | saracatinib 0.065 | sotrastaurin 0.025 | alvocidib -0.247 | Tubastatin A -0.181 | [6] 0.077 | defactinib 0.038 | [7] -0.082 | encorafenib 0.037 | [8] 0.096 | alisertib -0.032 | [9] -0.046 | gefitinib -0.004

C11orf54 (UniProt Q9H0W9)
inactive: vemurafenib 0.005 | [1] -0.015 | barasertib -0.037 | [2] 0.015 | volasertib 0.002 | [3] -0.018 | [4] 0.002 | [5] 0.016 | saracatinib 0.016 | sotrastaurin -0.019 | alvocidib -0.004 | Tubastatin A 0.04 | [6] -0.019 | defactinib -0.027 | [7] -0.015 | encorafenib -0.016 | [8] -0.038 | alisertib -0.006 | [9] 0.026 | gefitinib -0.041

CAMK2G isoform 8 (UniProt Q13555)
active: sotrastaurin 0.345 | alvocidib 0.334
inactive: vemurafenib 0.067 | [1] -0.03 | barasertib 0.058 | [2] 0.102 | volasertib -0.033 | [3] -0.079 | [4] -0.001 | [5] 0.022 | saracatinib 0.086 | Tubastatin A -0.098 | [6] 0.223 | defactinib 0.006 | [7] 0.034 | encorafenib -0.199 | [8] -0.007 | alisertib -0.013 | [9] 0.144 | gefitinib -0.013

C2orf69 (UniProt Q8N8R5)
inactive: vemurafenib -0.069 | [1] 0.027 | barasertib 0.016 | [2] 0.007 | volasertib 0.021 | [3] 0.025 | [4] -0.077 | [5] 0.146 | saracatinib 0.001 | sotrastaurin 0.023 | alvocidib -0.016 | Tubastatin A -0.026 | [6] 0.012 | defactinib 0.002 | [7] -0.022 | encorafenib -0.077 | [8] 0.055 | alisertib -0.056 | [9] -0.036 | gefitinib 0

CAPN2 (UniProt P17655)
inactive: vemurafenib -0.02 | [1] 0.012 | barasertib -0.006 | [2] -0.017 | volasertib -0.011 | [3] -0.01 | [4] 0.099 | [5] -0.023 | saracatinib -0.007 | sotrastaurin -0.011 | alvocidib -0.005 | Tubastatin A -0.024 | [6] -0.004 | defactinib 0.003 | [7] -0.008 | encorafenib 0.032 | [8] -0.015 | alisertib -0.007 | [9] -0.009 | gefitinib -0.014

Taken from the results shown (2 entries):
C11orf54 (UniProt Q9H0W9)
inactive: vemurafenib 0.005 | [1] -0.015 | barasertib -0.037 | [2] 0.015 | volasertib 0.002 | [3] -0.018 | [4] 0.002 | [5] 0.016 | saracatinib 0.016 | sotrastaurin -0.019 | alvocidib -0.004 | Tubastatin A 0.04 | [6] -0.019 | defactinib -0.027 | [7] -0.015 | encorafenib -0.016 | [8] -0.038 | alisertib -0.006 | [9] 0.026 | gefitinib -0.041

CAMK2G isoform 8 (UniProt Q13555)
active: sotrastaurin 0.345 | alvocidib 0.334
inactive: vemurafenib 0.067 | [1] -0.03 | barasertib 0.058 | [2] 0.102 | volasertib -0.033 | [3] -0.079 | [4] -0.001 | [5] 0.022 | saracatinib 0.086 | Tubastatin A -0.098 | [6] 0.223 | defactinib 0.006 | [7] 0.034 | encorafenib -0.199 | [8] -0.007 | alisertib -0.013 | [9] 0.144 | gefitinib -0.013

Additional results

BYSL (UniProt Q13895)
inactive: vemurafenib 0.039 | [1] 0.013 | barasertib 0.047 | [2] -0.073 | volasertib -0.026 | [3] 0.024 | [4] -0.007 | [5] -0.064 | saracatinib 0 | sotrastaurin 0.019 | alvocidib 0.014 | Tubastatin A -0.055 | [6] 0.008 | defactinib 0.007 | [7] -0.027 | encorafenib 0.007 | [8] 0.072 | alisertib -0.002 | [9] -0.004 | gefitinib -0.013

C6orf47 (UniProt O95873)
inactive: vemurafenib 0.048 | [1] -0.004 | barasertib 0.016 | [2] 0.044 | volasertib -0.015 | [3] -0.013 | [4] -0.269 | [5] 0.116 | saracatinib 0.037 | sotrastaurin 0.079 | alvocidib -0.118 | Tubastatin A 0.064 | [6] 0.032 | defactinib 0.02 | [7] 0.042 | encorafenib 0.019 | [8] -0.006 | alisertib -0.028 | [9] -0.06 | gefitinib 0.014

C1QBP (UniProt Q07021)
inactive: vemurafenib 0.005 | [1] -0.001 | barasertib -0.015 | [2] 0.034 | volasertib 0.023 | [3] -0.056 | [4] 0.004 | [5] 0.002 | saracatinib -0.007 | sotrastaurin 0.003 | alvocidib 0.025 | Tubastatin A 0.133 | [6] 0.01 | defactinib 0.023 | [7] -0.011 | encorafenib -0.006 | [8] -0.065 | alisertib 0.033 | [9] -0.018 | gefitinib -0.001

CANX isoform 2 (UniProt P27824)
inactive: vemurafenib 0.015 | [1] -0.012 | barasertib -0.015 | [2] 0.061 | volasertib 0.033 | [3] -0.014 | [4] -0.074 | [5] 0.034 | saracatinib 0.001 | sotrastaurin 0.036 | alvocidib -0.024 | Tubastatin A 0.05 | [6] -0.006 | defactinib 0.002 | [7] -0.003 | encorafenib 0.027 | [8] -0.015 | alisertib -0.008 | [9] 0.023 | gefitinib 0.008

CAPZA1 (UniProt P52907)
inactive: vemurafenib 0.028 | [1] 0.034 | barasertib -0.049 | [2] 0.043 | volasertib 0.005 | [3] -0.018 | [4] -0.082 | [5] 0.086 | saracatinib 0.006 | sotrastaurin 0.005 | alvocidib 0.021 | Tubastatin A 0.047 | [6] 0.024 | defactinib 0.003 | [7] 0.033 | encorafenib 0.006 | [8] -0.001 | alisertib 0.01 | [9] -0.001 | gefitinib -0.018

C8orf76 (UniProt Q96K31)
inactive: vemurafenib 0.01 | [1] 0.056 | barasertib -0.091 | [2] 0.055 | volasertib 0.006 | [3] 0.005 | [4] 0.014 | [5] 0.045 | saracatinib -0.051 | sotrastaurin 0.031 | alvocidib -0.021 | Tubastatin A 0.016 | [6] 0.029 | defactinib -0.002 | [7] 0.036 | encorafenib 0.079 | [8] 0.008 | alisertib -0.021 | [9] 0.003 | gefitinib -0.047

CAB39 (UniProt Q9Y376)
inactive: vemurafenib -0.048 | [1] -0.009 | barasertib -0.034 | [2] -0.01 | volasertib 0.035 | [3] 0.011 | [4] -0.008 | [5] 0.009 | saracatinib 0.009 | sotrastaurin 0.01 | alvocidib 0.003 | Tubastatin A 0.033 | [6] -0.02 | defactinib -0.009 | [7] -0.013 | encorafenib -0.007 | [8] -0.032 | alisertib -0.012 | [9] 0.006 | gefitinib 0.005

CARD11 (UniProt Q9BXL7)
inactive: vemurafenib 0.088 | [1] 0.012 | barasertib -0.075 | [2] -0.087 | volasertib -0.071 | [3] 0.082 | [4] -0.024 | [5] -0.014 | saracatinib 0.063 | sotrastaurin 0.002 | alvocidib 0.073 | Tubastatin A -0.023 | [6] 0.022 | defactinib -0.005 | [7] -0.029 | encorafenib -0.021 | [8] 0.072 | alisertib -0.028 | [9] 0.025 | gefitinib 0.014
